The values that follow come from the supplement of paper PMC7830784.

Where a name gives a salt, the structure may show the parent alone. Some of the results follow. Repeats in this data set agree poorly, so a single value says little. Bounds are passed on as bounds.

The test system of this test is Brugia pahangi adult female. Nature of the test: motility inhibition on day 3 relative to DMSO vehicle; higher = more active. The conditions noted are these: 10 µM; 3 days.
As to `Nc1nc(=O)n([C@@H]2CS[C@H](CO)O2)cc1F` [Emtricitabine], the “motility inhibition on day 3” value worked out at 9.46%.

For `CCCOc1ccccc1-c1nc2[nH]nnc2c(=O)[nH]1` [Zaprinast], the “motility inhibition on day 3” value turned out to be 29.8%.

For the compound `CCCCCCNC(=O)n1cc(F)c(=O)[nH]c1=O` [carmofur], the “motility inhibition on day 3” value was under 0%.

As to `COC(=O)N/N=C/c1c[n+]([O-])c2ccccc2[n+]1[O-]` [carbadox], the “motility inhibition on day 3” value was found to be 14.7%.

In the case of `CN(C(=O)CN(CCO)CC(=O)N(C)C(C)(C)Cc1ccccc1)C(C)(C)Cc1ccccc1` [oxethazaine], the “motility inhibition on day 3” value is under 0%.

As to `Cc1cc(C)nc(NS(=O)(=O)c2ccc(N)cc2)n1` [sulfamethazine], the “motility inhibition on day 3” value is under 0%.

As for `CC1(C)O[C@@H]2C[C@H]3[C@@H]4C[C@H](F)C5=CC(=O)C=C[C@]5(C)[C@@]4(F)[C@@H](O)C[C@]3(C)[C@]2(C(=O)CO)O1` [fluocinolone acetonide], the “motility inhibition on day 3” value turned out to be 25.3%.

On to `CCCCCCCC/C=C\CCCCCCCC(=O)O.NCCO` [ethanolamine oleate], for which the “motility inhibition on day 3” value came out at 45.2%.

For the compound `COc1cc(NS(=O)(=O)c2ccc(N)cc2)ncn1` [sulfamonomethoxine], the “motility inhibition on day 3” value amounted to 9.98%.

For the compound `O=C(Nc1ccc([N+](=O)[O-])cc1Cl)c1ccccc1O`, the “motility inhibition on day 3” value worked out at 99.8%.

With `CC(C)[C@H](N)C(=O)OCCOCn1cnc2c(=O)nc(N)[nH]c21` [valacyclovir hydrochloride], the “motility inhibition on day 3” value is 18.5%.

Take `C[C@@H]1C/C=C/C=C/C=C/C=C/[C@H](O[C@@H]2O[C@H](C)[C@@H](O)[C@H](N)[C@@H]2O)C[C@@H]2O[C@](O)(C[C@@H](O)C[C@H]3O[C@@H]3/C=C/C(=O)O1)C[C@H](O)[C@H]2C(=O)O` [natamycin]: the “motility inhibition on day 3” value is 25%.

In the case of `CCOC(=O)CN[C@@H](C(=O)N1CC[C@H]1C(=O)NCc1ccc(/C(N)=N\O)cc1)C1CCCCC1` [Ximelagatran], the “motility inhibition on day 3” value turned out to be 23.5%.

For the compound `C[C@H](CS)C(=O)N1CCC[C@H]1C(=O)O` [Captopril], the “motility inhibition on day 3” value stood at 15.9%.

Take `CN(Cc1cc(Br)cc(Br)c1N)C1CCCCC1` [bromhexine hydrochloride]: the “motility inhibition on day 3” value was 13%.

For the compound `CC1(C)O[C@@H]2C[C@H]3[C@@H]4C[C@H](F)C5=CC(=O)C=C[C@]5(C)[C@H]4[C@@H](O)C[C@]3(C)[C@]2(C(=O)CO)O1` [flunisolide], the “motility inhibition on day 3” value is under 0%.

For `NCCc1ccc(O)c(O)c1` [Dopamine hydrochloride], the “motility inhibition on day 3” value amounted to 1.18%.

On to `CC[C@H](c1ccc(O)cc1)[C@@H](CC)c1ccc(O)cc1` [hexestrol], for which the “motility inhibition on day 3” value is under 0%.

Regarding `Cc1c(Nc2ncccc2C(=O)O)cccc1C(F)(F)F` [flunixin meglumine], the “motility inhibition on day 3” value is 0.835%.

`CC(=O)OCC(=O)[C@@]1(O)CC[C@H]2[C@@H]3CCC4=CC(=O)C=C[C@]4(C)[C@H]3[C@@H](O)C[C@@]21C` [prednisolone acetate]: the “motility inhibition on day 3” value is under 0%.
